# Test results reported in PubChem BioAssay (NCATS).
# The list shows a part of the results. The main result of the screen is listed elsewhere. These columns were measured beside it and carry no call. The list favours compounds with an active or inconclusive main result. Potencies come from curve fits of mixed quality, noted in brackets.
# Assay: A High-Content qHTS Against Drug Library for the Identification of Small Molecules that Inhibit DYT1 Early Onset Primary Dystonia-Associated Cell Pathology (AID 1645839)
# Details: HEK293 Flp-In EGFP-delE TorsinA, punctate imaging, 48 h; measured here: cell count cytotoxicity
# Summary of the method: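 Cells were seeded and left for 24 h, then dosed with compound alongside tetracycline induction of mutant EGFP-TorsinA. They were incubated for 48 h, fixed in 4% paraformaldehyde, permeabilized and imaged for mislocalization (%pathology) and cell count.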
row,SMILES,AC50
1,c1ccc(CC2=NCCN2)cc1,"35.5 µM [rising, single point]"
2,CCCCNc1ccc(C(=O)OCCOCCOCCOCCOCCOCCOCCOCCOCCOC)cc1,"35.5 µM [falling, single point]"
3,CN(C)CCCOc1nn(Cc2ccccc2)c2ccccc12,"11.2 µM [falling, partial curve, poor fit]"
4,Cc1c(-c2ccc(O)cc2)n(Cc2ccc(OCCN3CCCCCC3)cc2)c2ccc(O)cc12,"2.82 µM [falling, partial curve, poor fit]"
5,Cc1ccc(O)c([C@H](CCN(C(C)C)C(C)C)c2ccccc2)c1,"0.891 µM [falling, full curve, poor fit]"
6,CCCCCCCCCCC[C@@H](C[C@@H]1OC(=O)[C@H]1CCCCCC)OC(=O)[C@H](CC(C)C)NC=O,"1.58 µM [falling, partial curve, poor fit]"
7,CC(O)C(=O)O (stereo not drawn),"10 µM [rising, partial curve, poor fit]"
8,CCC1=C(C)CN(C(=O)NCCc2ccc(S(=O)(=O)NC(=O)NC3CCC(C)CC3)cc2)C1=O (stereo not drawn),"35.5 µM [falling, single point]"
9,CCCC(CCC)(C(=O)OCC)C(=O)OCC,"35.5 µM [rising, single point]"
11,Oc1c(I)cc(I)c2cccnc12,"2.82 µM [falling, full curve, poor fit]"
12,O=C1OC2(c3ccc(O)cc3Oc3cc(O)ccc32)c2ccccc21,"6.31 µM [falling, single point]"
13,CC(C(O)c1ccccc1)N(C)CCOC(c1ccccc1)c1ccccc1 (stereo not drawn),"11.2 µM [falling, single point]"

# A draw from above in order of SMILES length, falling.
row,SMILES,AC50
6,CCCCCCCCCCC[C@@H](C[C@@H]1OC(=O)[C@H]1CCCCCC)OC(=O)[C@H](CC(C)C)NC=O,"1.58 µM [falling, partial curve, poor fit]"
3,CN(C)CCCOc1nn(Cc2ccccc2)c2ccccc12,"11.2 µM [falling, partial curve, poor fit]"
9,CCCC(CCC)(C(=O)OCC)C(=O)OCC,"35.5 µM [rising, single point]"
